# Values of other authors, collected in patent publication US9931342B2, “Compositions and methods for the treatment of cancer” (Duke University, priority 2016, dated 2018).
# For at least one compound, name, drawing or mass did not settle the structure.
# Test system: HLRCC xenografts
# Settings: vandetanib alone; cited from earlier work
smiles,measurement,value
COc1cc2c(Nc3ccc(Br)cc3F)ncnc2cc1OCC1CCN(C)CC1 [vandetanib],growth of HLRCC xenografts,markedly inhibited
